From the supplement of paper PMC10849652
Some of the results follow.

The chains behind the UniProt entries cited, without tags or fusion partners. Where a name states a change or a piece, a line headed by the entry shows the natural chain unless it says otherwise.
UniProt Q7Z6K1, whole entry, looked up: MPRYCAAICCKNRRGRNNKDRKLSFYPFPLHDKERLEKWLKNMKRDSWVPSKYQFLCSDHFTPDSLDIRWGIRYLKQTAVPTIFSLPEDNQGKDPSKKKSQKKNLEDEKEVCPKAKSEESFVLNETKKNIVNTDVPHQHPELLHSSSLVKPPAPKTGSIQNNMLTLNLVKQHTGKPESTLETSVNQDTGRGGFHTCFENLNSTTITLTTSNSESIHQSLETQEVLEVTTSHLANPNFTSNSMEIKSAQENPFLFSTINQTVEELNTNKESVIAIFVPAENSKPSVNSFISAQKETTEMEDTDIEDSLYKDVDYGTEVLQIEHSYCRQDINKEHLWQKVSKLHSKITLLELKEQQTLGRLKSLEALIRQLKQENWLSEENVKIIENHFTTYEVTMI
UniProt O75204: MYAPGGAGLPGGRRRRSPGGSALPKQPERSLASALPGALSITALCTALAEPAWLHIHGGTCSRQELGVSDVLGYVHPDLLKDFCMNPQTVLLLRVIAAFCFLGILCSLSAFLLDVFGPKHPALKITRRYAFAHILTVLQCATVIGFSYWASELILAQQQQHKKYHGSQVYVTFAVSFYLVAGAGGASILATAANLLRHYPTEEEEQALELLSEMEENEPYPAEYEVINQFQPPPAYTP
UniProt Q9BRN9: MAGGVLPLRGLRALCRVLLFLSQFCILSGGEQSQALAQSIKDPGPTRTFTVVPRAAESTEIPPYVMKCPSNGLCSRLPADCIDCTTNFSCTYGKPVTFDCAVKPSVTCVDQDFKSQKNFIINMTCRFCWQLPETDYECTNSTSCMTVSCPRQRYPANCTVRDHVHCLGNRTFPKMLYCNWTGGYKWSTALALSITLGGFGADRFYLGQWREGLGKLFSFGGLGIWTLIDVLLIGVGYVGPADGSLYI
UniProt Q8WTV1: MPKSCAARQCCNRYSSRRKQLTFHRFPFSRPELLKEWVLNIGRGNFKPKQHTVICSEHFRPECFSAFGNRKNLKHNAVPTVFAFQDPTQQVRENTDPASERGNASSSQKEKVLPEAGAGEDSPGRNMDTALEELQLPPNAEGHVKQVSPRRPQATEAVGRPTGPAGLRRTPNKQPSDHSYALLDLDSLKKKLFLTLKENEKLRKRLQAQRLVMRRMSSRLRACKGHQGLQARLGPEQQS
UniProt Q9H6X4: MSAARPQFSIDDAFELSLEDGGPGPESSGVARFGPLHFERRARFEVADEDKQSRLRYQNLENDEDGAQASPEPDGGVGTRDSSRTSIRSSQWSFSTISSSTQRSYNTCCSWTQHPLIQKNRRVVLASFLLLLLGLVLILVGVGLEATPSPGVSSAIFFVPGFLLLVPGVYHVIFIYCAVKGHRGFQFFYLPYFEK
UniProt Q15583: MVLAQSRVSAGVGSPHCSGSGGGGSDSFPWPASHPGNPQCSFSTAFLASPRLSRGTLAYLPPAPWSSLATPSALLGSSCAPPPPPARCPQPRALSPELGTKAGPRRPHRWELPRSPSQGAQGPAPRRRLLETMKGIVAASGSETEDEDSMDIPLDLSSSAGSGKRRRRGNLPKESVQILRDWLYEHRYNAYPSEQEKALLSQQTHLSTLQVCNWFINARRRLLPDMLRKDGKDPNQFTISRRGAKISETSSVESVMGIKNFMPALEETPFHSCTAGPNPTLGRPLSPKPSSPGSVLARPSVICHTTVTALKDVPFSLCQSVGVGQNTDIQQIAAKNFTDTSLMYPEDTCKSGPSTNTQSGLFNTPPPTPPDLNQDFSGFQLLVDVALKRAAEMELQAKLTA
UniProt Q9Y5J6: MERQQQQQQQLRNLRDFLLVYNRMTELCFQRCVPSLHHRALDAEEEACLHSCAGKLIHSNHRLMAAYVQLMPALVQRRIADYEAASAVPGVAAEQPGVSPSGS
UniProt Q6UWJ1: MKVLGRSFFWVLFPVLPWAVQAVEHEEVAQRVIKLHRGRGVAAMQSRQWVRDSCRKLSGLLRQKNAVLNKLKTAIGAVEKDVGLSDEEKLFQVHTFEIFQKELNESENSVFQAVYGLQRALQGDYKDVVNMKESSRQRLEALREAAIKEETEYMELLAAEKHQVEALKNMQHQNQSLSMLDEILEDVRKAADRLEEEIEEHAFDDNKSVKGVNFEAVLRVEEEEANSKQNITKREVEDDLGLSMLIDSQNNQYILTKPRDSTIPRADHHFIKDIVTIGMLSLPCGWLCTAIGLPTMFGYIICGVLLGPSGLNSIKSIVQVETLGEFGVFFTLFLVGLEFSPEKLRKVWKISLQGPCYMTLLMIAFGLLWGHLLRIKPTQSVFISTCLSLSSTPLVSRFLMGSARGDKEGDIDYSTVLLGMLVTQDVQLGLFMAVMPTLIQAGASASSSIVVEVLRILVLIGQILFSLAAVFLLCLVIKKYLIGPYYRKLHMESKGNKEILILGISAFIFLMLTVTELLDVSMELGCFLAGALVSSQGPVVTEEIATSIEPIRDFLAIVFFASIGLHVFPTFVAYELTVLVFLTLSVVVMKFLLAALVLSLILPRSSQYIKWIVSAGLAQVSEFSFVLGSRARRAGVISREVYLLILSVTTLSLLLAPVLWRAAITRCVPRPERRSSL
UniProt O76062: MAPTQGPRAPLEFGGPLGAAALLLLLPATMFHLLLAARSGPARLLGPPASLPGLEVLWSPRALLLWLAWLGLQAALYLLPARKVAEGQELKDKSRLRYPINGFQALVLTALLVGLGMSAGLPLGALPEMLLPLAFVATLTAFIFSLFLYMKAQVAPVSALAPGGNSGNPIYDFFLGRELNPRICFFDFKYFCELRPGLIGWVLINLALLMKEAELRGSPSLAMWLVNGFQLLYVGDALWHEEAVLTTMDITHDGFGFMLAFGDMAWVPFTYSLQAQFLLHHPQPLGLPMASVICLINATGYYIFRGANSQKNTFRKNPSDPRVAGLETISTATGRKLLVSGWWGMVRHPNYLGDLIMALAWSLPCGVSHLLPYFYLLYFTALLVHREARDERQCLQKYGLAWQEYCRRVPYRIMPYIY
UniProt Q7Z402: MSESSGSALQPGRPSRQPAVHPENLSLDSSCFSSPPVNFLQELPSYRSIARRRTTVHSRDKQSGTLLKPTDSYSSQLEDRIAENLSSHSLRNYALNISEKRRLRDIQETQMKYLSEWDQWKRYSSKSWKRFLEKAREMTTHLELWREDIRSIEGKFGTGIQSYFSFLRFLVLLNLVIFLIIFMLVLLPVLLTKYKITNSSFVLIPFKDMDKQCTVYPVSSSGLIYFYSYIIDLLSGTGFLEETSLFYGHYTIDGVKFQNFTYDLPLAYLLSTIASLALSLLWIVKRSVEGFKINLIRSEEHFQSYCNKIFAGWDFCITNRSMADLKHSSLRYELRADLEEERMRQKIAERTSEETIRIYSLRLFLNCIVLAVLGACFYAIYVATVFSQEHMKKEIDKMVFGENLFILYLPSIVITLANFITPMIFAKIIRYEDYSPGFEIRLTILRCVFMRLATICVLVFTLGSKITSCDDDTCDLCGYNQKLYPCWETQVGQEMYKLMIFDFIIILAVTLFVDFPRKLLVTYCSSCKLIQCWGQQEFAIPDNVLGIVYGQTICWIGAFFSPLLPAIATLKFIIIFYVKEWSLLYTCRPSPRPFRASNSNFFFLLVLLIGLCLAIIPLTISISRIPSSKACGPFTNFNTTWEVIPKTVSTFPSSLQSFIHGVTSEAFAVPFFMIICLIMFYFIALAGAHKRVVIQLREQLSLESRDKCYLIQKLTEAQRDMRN
UniProt Q24JP5: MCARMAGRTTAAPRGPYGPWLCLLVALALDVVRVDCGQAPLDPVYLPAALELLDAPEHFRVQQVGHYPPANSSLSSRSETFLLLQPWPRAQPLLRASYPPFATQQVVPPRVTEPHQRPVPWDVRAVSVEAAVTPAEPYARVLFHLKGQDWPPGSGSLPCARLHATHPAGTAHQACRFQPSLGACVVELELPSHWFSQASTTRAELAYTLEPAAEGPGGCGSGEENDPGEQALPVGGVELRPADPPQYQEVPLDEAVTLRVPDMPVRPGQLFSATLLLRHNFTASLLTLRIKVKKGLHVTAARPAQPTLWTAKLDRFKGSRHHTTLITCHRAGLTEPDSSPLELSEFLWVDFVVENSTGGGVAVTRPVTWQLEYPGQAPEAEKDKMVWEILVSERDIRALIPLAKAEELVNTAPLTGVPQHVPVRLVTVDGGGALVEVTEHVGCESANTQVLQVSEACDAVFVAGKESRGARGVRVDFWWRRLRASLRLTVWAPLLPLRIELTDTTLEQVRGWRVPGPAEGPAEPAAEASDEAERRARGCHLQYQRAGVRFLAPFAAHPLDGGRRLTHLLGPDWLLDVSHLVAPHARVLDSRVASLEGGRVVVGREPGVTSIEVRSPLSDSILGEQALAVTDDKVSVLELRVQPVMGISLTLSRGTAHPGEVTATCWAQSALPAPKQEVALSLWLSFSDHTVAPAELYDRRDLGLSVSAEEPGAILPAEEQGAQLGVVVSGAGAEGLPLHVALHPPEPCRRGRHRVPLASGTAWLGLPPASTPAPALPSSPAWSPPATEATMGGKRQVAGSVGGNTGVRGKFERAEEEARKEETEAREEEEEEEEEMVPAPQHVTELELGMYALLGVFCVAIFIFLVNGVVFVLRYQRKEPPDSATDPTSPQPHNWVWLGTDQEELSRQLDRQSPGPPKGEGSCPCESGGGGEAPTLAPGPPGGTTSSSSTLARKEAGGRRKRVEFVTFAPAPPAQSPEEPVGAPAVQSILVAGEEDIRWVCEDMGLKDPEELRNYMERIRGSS
UniProt O94876, whole entry, looked up: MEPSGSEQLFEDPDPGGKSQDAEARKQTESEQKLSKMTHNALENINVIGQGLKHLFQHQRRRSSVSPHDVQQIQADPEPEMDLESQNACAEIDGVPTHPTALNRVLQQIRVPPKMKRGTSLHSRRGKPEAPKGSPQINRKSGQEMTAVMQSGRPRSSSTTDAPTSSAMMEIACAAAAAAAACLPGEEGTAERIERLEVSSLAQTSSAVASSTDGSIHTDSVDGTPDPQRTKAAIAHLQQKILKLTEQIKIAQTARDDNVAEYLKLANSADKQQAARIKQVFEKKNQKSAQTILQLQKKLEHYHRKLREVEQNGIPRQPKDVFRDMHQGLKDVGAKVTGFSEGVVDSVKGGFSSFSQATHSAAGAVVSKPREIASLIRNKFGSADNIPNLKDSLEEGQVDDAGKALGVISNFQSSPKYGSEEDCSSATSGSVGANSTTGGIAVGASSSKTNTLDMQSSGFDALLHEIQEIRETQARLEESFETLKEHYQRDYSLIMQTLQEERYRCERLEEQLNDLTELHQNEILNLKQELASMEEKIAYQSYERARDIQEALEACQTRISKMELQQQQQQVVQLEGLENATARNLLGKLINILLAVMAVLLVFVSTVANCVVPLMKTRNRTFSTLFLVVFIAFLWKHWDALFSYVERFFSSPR
UniProt Q9BSA9: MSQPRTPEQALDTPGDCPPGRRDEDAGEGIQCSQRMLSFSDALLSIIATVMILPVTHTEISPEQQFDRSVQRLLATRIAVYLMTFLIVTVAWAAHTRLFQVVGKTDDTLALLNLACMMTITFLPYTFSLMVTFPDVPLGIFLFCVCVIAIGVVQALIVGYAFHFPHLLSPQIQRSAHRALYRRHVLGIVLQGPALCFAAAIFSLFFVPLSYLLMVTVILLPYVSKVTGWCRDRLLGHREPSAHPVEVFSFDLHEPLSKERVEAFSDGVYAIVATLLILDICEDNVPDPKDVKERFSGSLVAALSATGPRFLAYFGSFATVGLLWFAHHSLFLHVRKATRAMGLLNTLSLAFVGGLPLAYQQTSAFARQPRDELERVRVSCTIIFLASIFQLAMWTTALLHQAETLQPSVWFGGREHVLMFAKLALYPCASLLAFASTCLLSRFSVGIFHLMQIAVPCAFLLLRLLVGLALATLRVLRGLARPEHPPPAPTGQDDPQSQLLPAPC
UniProt Q9NQ88: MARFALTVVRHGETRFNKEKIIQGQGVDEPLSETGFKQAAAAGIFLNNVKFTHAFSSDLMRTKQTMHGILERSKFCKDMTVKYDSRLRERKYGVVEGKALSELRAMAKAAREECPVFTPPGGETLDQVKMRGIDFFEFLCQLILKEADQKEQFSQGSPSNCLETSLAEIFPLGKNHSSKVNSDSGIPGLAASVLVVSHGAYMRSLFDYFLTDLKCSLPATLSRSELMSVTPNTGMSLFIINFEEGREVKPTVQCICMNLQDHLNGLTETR
UniProt Q96CG3: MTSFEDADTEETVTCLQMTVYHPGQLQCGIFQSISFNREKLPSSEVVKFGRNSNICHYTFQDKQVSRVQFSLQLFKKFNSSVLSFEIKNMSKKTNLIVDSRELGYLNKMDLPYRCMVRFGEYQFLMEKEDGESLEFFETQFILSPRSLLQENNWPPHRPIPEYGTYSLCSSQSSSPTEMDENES
UniProt Q9BVX2: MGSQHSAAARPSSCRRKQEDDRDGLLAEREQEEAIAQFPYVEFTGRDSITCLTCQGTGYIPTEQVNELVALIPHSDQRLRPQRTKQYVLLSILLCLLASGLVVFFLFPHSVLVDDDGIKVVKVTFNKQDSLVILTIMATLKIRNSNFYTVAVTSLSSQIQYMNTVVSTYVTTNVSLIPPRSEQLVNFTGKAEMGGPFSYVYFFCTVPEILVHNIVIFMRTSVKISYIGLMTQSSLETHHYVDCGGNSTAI

Experiments:
Assay in all cases: log2 fold change, soluble protein after heating vs DMSO (PISA); higher = thermal stabilisation; K562 lysate, 10 uM; active = over 0.2 and 3.5 SD of the protein, either way, in both replicates (recomputed)
[1] = compound: Cc1nc(Nc2ncc(C(=O)Nc3c(C)cccc3Cl)s2)cc(N2CCN(CCO)CC2)n1 [dasatinib]
How it was run: (§1)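 Thermal stability, expressed as log-two fold change relative to solvent controls, is given from duplicates. Crude K562 extract in PBS pH 7.4 with 1 mM MgCl2, at 1 mg/mL protein, was treated with 10 μM compound for 30 min and heated in aliquots for 3 min across 48°C-58°C. After pooling, adjustment to 0.5% NP-40 at 4°C and centrifugation at 21,000xg for 90 min, supernatant protein was measured by TMTpro 16plex LC-MS/MS with channel sums equalised.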

[2] = compound: Cn1cc(-c2ccc3c(c2)CCN3C(=O)Cc2cccc(C(F)(F)F)c2)c2c(N)ncnc21
How it was run: as §1

[3] = compound: NC1(c2ccc(-c3nc4ccn5c(=O)[nH]nc5c4cc3-c3ccccc3)cc2)CCC1
How it was run: as §1

[4] = compound: Cn1cc(CNCC2CCN(c3ncc(C(=O)NO)cn3)CC2)c2ccccc21 [quisinostat]
How it was run: as §1

[5] = compound: NC(=O)Nc1cc(-c2cccc(F)c2)sc1C(=O)N[C@H]1CCCNC1
How it was run: as §1

[6] = compound: NC(=O)c1cnc(N[C@@H]2CCCC[C@@H]2N)nc1Nc1cccc(-n2nccn2)c1
How it was run: as §1

[7] = compound: Cc1cn(-c2cc(NC(=O)c3ccc(C)c(Nc4nccc(-c5cccnc5)n4)c3)cc(C(F)(F)F)c2)cn1 [nilotinib]
How it was run: as §1

[8] = compound: Cc1nc(Nc2n[nH]c3c2CN(C(=O)N[C@H](CN(C)C)c2ccccc2)C3(C)C)c2sccc2n1
How it was run: as §1

[9] = compound: Cc1ncc(-c2ccnc(Nc3ccc(S(C)(=O)=O)cc3)n2)n1C(C)C
How it was run: as §1

[10] = compound: Cn1cncc1[C@@](N)(c1ccc(Cl)cc1)c1ccc2c(c1)c(-c1cccc(Cl)c1)cc(=O)n2C [tipifarnib]
How it was run: as §1

Measured: log2 fold change

THAP5 (UniProt Q7Z6K1)
inactive: [1] -0.03 | [2] -0.012

TMEM127 (UniProt O75204)
inactive: [1] 0.137 | [2] 0.065 | [3] 0.119

TMEM177 (UniProt Q53S58)
inactive: [4] -0.018 | [5] 0.036 | [6] 0.029 | [3] 0.067

TMEM184B (UniProt Q9Y519)
inactive: [1] -0.083 | [2] -0.112 | [4] -0.006 | [5] 0.013

TM2D3 (UniProt Q9BRN9)
inactive: [3] -0.09

THAP3 (UniProt Q8WTV1)
inactive: [7] 0.021 | [8] 0.08 | [9] -0.023 | [4] -0.144 | [10] -0.088 | [5] -0.125 | [3] 0.028

TM7SF3 (UniProt Q9NS93)
inactive: [1] -0.066 | [2] 0.065 | [4] 0.015 | [5] -0.065 | [3] -0.007

THBS1 (UniProt P07996)
inactive: [1] -0.008 | [2] 0.238 | [4] -0.133 | [5] -0.001

TMEM134 (UniProt Q9H6X4)
inactive: [1] 0.083 | [2] -0.096 | [4] 0.018 | [5] -0.075 | [6] 0.052 | [3] -0.17

TM6SF1 (UniProt Q9BZW5)
inactive: [1] 0.036 | [2] -0.052 | [4] 0 | [5] 0.124 | [6] 0.036 | [3] 0.029

TGIF1 (UniProt Q15583)
inactive: [4] -0.02 | [5] 0.095 | [3] 0.013

TIMM10B (UniProt Q9Y5J6)
inactive: [1] 0.073 | [2] -0.089 | [4] -0.039 | [5] 0.009 | [3] -0.016

TGFBR1 isoform 2 (UniProt P36897)
inactive: [2] -0.03 | [3] -0.117

TMEM154 (UniProt Q6P9G4)
inactive: [1] 0.058 | [2] 0.07 | [4] 0.103 | [5] -0.101

TK2 isoform 6 (UniProt O00142)
inactive: [1] -0.083 | [2] 0.014 | [4] 0.035 | [5] -0.097 | [6] 0.061 | [3] -0.058

Pulled one by one from the list above (two):
TMEM154 (UniProt Q6P9G4)
inactive: [1] 0.058 | [2] 0.07 | [4] 0.103 | [5] -0.101

TGIF1 (UniProt Q15583)
inactive: [4] -0.02 | [5] 0.095 | [3] 0.013

Following part:

TGM2 (UniProt A2A299)
inactive: [7] -0.055 | [8] -0.026 | [9] -0.052 | [10] -0.038 | [6] 0.104

TMCO3 (UniProt Q6UWJ1)
inactive: [4] 0.083 | [5] -0.037

TKTL1 (UniProt P51854)
inactive: [1] -0.139 | [2] -0.021

TM7SF2 (UniProt O76062)
inactive: [4] -0.001 | [5] 0.12

TMEM129
inactive: [3] 0.167

TMEM120B (UniProt A0PK00)
inactive: [1] -0.173 | [2] 0.037 | [4] 0.067 | [5] 0.038 | [6] -0.056 | [3] 0.108

TMC7 (UniProt Q7Z402)
inactive: [3] 0.189

TMEM132A isoform 2 (UniProt Q24JP5)
inactive: [4] -0.022 | [5] 0.087 | [6] 0.724 | [3] -0.014

TICRR (UniProt Q7Z2Z1)
inactive: [1] 0.165 | [2] 0.152

TMCC1 (UniProt O94876)
inactive: [1] 0.058 | [2] -0.104

TMEM175 (UniProt Q9BSA9)
inactive: [4] -0.313 | [5] 0.102 | [3] -0.136

THOC2 (UniProt H0Y7U4)
inactive: [1] 0.028 | [2] 0.089 | [4] 0.023 | [5] 0.011 | [6] 0.054

TIGAR (UniProt Q9NQ88)
inactive: [1] 0.317 | [2] 0.058 | [4] -0.362 | [5] 0.129 | [3] 0.059

TIFA (UniProt Q96CG3)
inactive: [4] -0.099 | [5] -0.036 | [3] -0.034

THAP9 (UniProt Q9H5L6)
inactive: [1] 0.025 | [2] -0.032 | [4] -0.455 | [5] 0.07 | [6] 0.179

TMEM104 (UniProt Q8NE00)
inactive: [4] -0.007 | [5] -0.048

TLNRD1 (UniProt Q9H1K6)
inactive: [1] -0.03 | [2] 0.046 | [4] -0.152 | [5] 0.132 | [6] -0.015

TGFBR2 isoform 2 (UniProt P37173)
inactive: [1] 0.123 | [2] -0.385 | [3] 0.04

TLE3 (UniProt H0YL70)
inactive: [1] 0.077 | [2] 0.05

TMEM106C (UniProt Q9BVX2)
inactive: [3] -0.224
